This passage reports binding results from PMC3376730, “Crystal structure of Caulobacter crescentus polynucleotide phosphorylase reveals a mechanism of RNA substrate channelling and RNA degradosome assembly” (Open Biology, 2012).

Results are given in words; binding and its absence hold for the method and conditions named. Binding seen in cells or lysates may run through a third protein. Some results given as binding are weak or reduced against the parent protein; the word gives no strength. Tags and fused reporters may be left off the sequences shown.

The target in the experiment is T1, RNase E with an N-terminal flag tag, genomically encoded in C. crescentus (Caulobacter crescentus) (UniProt Q9A749).
T1 sequence: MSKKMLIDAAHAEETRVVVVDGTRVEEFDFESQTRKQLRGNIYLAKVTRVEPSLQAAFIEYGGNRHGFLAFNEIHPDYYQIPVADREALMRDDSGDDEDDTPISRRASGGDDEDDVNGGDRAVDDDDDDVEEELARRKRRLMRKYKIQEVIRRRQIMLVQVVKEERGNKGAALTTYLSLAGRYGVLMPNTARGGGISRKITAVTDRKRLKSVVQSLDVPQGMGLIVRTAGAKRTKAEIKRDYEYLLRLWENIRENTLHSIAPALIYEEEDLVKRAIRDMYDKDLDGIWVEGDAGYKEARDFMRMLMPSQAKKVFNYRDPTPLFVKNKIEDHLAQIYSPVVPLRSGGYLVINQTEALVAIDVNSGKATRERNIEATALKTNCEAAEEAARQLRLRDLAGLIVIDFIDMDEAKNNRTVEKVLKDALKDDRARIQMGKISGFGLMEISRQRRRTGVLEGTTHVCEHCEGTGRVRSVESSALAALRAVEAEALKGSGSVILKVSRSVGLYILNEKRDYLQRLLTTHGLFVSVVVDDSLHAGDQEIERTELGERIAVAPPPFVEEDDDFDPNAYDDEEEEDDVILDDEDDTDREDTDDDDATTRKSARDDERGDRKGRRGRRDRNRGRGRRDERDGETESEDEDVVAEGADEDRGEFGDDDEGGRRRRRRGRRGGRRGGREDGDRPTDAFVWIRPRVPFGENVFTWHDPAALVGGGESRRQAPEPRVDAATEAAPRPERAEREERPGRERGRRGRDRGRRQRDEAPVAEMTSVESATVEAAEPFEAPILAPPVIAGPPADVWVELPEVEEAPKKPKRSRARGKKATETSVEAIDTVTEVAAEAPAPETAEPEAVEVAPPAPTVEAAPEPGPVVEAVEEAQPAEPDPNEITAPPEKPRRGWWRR
Kind of experiment: pull-down; flag-tagged, genomically encoded RNase E pulled down from C. crescentus; degradosome components assessed by SDS–PAGE.

B1: Caulobacter crescentus polynucleotide phosphorylase (enzyme, UniProt B8GWZ0 1-712, looked up)
chain: MFDIKRKTIEWGGKTLVLETGRIARQADGAVLATMGETVVLATAVFAKSQKPGQDFFPLTVNYQEKTFAAGKIPGGFFKREGRPSEKETLVSRLIDRPIRPLFVKGFKNEVQVVVTVLQHDLENDPDILGMVAASAALCLSGAPFMGPIGAARVGWVDGAYVLNPTLDEMKESKMDLVVAGTADAVMMVESEIQELSEEIVLGGVNFAHQQMQAVIDAIIDLAEHAAKEPFAFEPEDTDAIKAKMKDLVGADIAAAYKIQKKQDRYEAVGAAKKKAIAALGLSDENPTGYDPLKLGAIFKELEADVVRRGILDTGLRIDGRDVKTVRPILGEVGILPRTHGSALFTRGETQAIVVATLGTGDDEQFIDALEGTYKESFLLHYNFPPYSVGETGRMGSPGRREIGHGKLAWRALRPMLPTKEDFPYTIRLVSEITESNGSSSMATVCGSSLAMMDAGVPLVRPVSGIAMGLILEQDGFAVLSDILGDEDHLGDMDFKVAGTSEGLTSLQMDIKIAGITPAIMEQALAQAKEGRAHILGEMNKAMDAPRADVGDFAPKIETINIPTDKIREVIGSGGKVIREIVATTGAKVDINDDGVVKVSASDGAKIKAAIDWIKSITDEAEVGKIYDGKVVKVVDFGAFVNFFGAKDGLVHVSQISNERVAKPSDVLKEGQMVKVKLLGFDDRGKTKLSMKVVDQETGEDLSKKEAAAEEA
notes: polynucleotide phosphorylase, pnp gene (CC0034), amplified from genomic DNA of C. crescentus strain NA1000 with primers from the start codon to the stop codon; Two alternative constructs were made (GST-PNPase from pGEX-6p-1, GST cut off with PreScission protease; 6xHis-PNPase from pET-DUET); the two tags are not on one chain; also called PNPase; C. crescentus PNPase; source: E. coli, purified …
For B1, the binding entry is “binds”.
